# Results published in publication PMC10663520, “Qa-SNARE syntaxin 18 mediates lipid droplet fusion with SNAP23 and SEC22B” (Cell Discovery, 2023).
# By UniProt entry, the sequences of proteins in these tests, tags left out.
# UniProt O75396: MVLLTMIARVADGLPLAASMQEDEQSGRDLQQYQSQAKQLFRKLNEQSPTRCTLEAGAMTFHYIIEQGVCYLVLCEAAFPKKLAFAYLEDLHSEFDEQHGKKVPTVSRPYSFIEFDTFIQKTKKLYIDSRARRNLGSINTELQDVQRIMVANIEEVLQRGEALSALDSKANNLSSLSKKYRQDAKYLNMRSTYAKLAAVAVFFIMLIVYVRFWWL
# UniProt O00161: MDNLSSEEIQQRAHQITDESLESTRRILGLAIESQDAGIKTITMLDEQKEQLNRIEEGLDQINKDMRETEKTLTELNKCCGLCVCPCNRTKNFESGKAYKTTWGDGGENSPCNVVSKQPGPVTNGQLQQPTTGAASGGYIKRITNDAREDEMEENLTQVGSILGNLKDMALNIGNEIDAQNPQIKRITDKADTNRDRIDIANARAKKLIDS
# No constants are given. Whether binding was seen depends on the method and setting. Binding seen in cells or lysates may run through a third protein. These calls come from enrichment with a bait or labelling near it, and not all partners need be listed. Sequences can lack the tags named with a protein.
# T1: Flag-STX18 (bait of the IP-MS) (UniProt Q9P2W9)
# T1 sequence: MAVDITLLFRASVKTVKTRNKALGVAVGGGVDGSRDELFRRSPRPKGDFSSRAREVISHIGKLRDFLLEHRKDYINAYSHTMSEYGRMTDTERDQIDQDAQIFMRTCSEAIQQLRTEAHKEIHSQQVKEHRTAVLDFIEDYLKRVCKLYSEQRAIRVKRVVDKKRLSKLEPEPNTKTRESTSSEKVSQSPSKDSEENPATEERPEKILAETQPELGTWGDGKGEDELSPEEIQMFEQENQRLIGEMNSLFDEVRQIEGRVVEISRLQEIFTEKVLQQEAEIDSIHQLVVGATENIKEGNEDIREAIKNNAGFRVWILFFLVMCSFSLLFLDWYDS
# Columns and labels:
# [1] = target: T1, Flag-STX18 (bait of the IP-MS); assay: affinity purification with mass spectrometry; IP-MS of Flag-STX18; cells not given
# ZZ-Flag-SEC22B = ZZ-Flag-SEC22B (UniProt O75396); assay: affinity purification with mass spectrometry; tandem affinity purification (TAP-MS) of ZZ-Flag-SEC22B
molecule,measurement,setting,value
SEC22B (found in the IP-MS of Flag-STX18) (from UniProt O75396 1-215),binding,[1],binds
SNAP23 (found in the IP-MS of Flag-STX18) (from UniProt O00161 1-211),binding,[1],binds
SNAP23 (found in the TAP-MS of ZZ-Flag-SEC22B) (from UniProt O00161 1-211),binding,ZZ-Flag-SEC22B,binds
"STX18 (found in the TAP-MS of ZZ-Flag-SEC22B) (protein, UniProt Q9P2W9 1-335) MAVDITLLFRASVKTVKTRNKALGVAVGGGVDGSRDELFRRSPRPKGDFSSRAREVISHIGKLRDFLLEHRKDYINAYSHTMSEYGRMTDTERDQIDQDAQIFMRTCSEAIQQLRTEAHKEIHSQQVKEHRTAVLDFIEDYLKRVCKLYSEQRAIRVKRVVDKKRLSKLEPEPNTKTRESTSSEKVSQSPSKDSEENPATEERPEKILAETQPELGTWGDGKGEDELSPEEIQMFEQENQRLIGEMNSLFDEVRQIEGRVVEISRLQEIFTEKVLQQEAEIDSIHQLVVGATENIKEGNEDIREAIKNNAGFRVWILFFLVMCSFSLLFLDWYDS",binding,ZZ-Flag-SEC22B,binds
